Where a name gives a salt, the structure may show the parent alone. The list shows a part of the results. This is a noisy data set.

The test has as its system Peyronie's disease tunica albuginea primary fibroblasts. In words: inhibition of TGF-beta1-induced alpha-SMA expression (myofibroblast transformation), relative to TGF-beta1-only and untreated controls; higher = stronger inhibition of myofibroblast transformation. To be noted: 10 µM; TGF-beta1 10 ng/mL; 72 h.
With `CCC(NC(C)C)C(O)c1ccc(O)c(O)c1` (stereo not drawn) [Isoetharine Mesylate], the “inhibition of TGF-beta1-induced alpha-SMA expression” value (shortened to “inhibition”) was found to be 92.6%. For `C[C@]12CC[C@@H]3c4ccc(O)cc4CC[C@H]3[C@@H]1CC[C@@H]2OC(=O)CCC1CCCC1` [Estradiol Cypionate], the “inhibition” value worked out at 12%. Next, `CN1CCN(C2=Nc3cc(Cl)ccc3Nc3ccccc32)CC1` [Clozapine]: 25.6%. The same measure for `C=CC(=O)N1CCC(Oc2cc3c(Nc4ccc(Cl)c(Cl)c4F)ncnc3cc2OC)CC1` [Poziotinib (HM781-36B)]: 55.7%; for `Cc1ccc(-c2ncc(Cl)cc2-c2ccc(S(C)(=O)=O)cc2)cn1` [Etoricoxib]: 21.4%.

Turning to `NCC(=O)O` [Glycine], the “inhibition” value is 15.2%. Regarding `CC1CCc2c(N3CCC(O)CC3)c(F)cc3c(=O)c(C(=O)O)cn1c23` (stereo not drawn) [Nadifloxacin], the “inhibition” value turned out to be 27.7%. Next, `Cc1cc(=O)n(-c2ccccc2)n1C` [Antipyrine]: 18.8%; `Clc1ccc(COC(Cn2ccnc2)c2ccc(Cl)cc2Cl)c(Cl)c1` (stereo not drawn) [Miconazole]: 19.2%.

Turning to `Clc1ccc(COC(Cn2ccnc2)c2ccc(Cl)cc2Cl)c(Cl)c1` (stereo not drawn) [Miconazole Nitrate], the “inhibition” value is 55.2%. On to `CCCN(CCc1cccs1)[C@H]1CCc2c(O)cccc2C1` [Rotigotine], for which the “inhibition” value amounted to 10%. The same measure for `CS(=O)(=O)n1cc2c(n1)CN([C@H]1CO[C@H](c3cc(F)ccc3F)[C@@H](N)C1)C2` [Omarigliptin (MK-3102)]: -19.3%; for `Cn1ncc(Cl)c1-c1cc(C(=O)N[C@H](CN)Cc2cccc(F)c2)sc1Cl`: over 100%. Next, `NC12CC3CC(CC(C3)C1)C2` [Amantadine]: 10.7%. Next, `NC12CC3CC(CC(C3)C1)C2` [Amantadine HCl]: 14.9%; `CO[C@H]1O[C@@H]2O[C@@]3(C)CC[C@H]4[C@H](C)CC[C@@H]([C@H]1C)[C@@]24OO3` [Artemether]: -8.85%; `Nc1ccc(S(=O)(=O)Nc2ccccn2)cc1` [Sulfapyridine]: 4.58%. In the case of `Nc1ccn([C@@H]2O[C@H](CO)[C@@H](O)[C@@H]2O)c(=O)n1` [Cytarabine hydrochloride], the “inhibition” value was found to be 8.42%. As to `Nc1ccn([C@@H]2O[C@H](CO)[C@@H](O)[C@@H]2O)c(=O)n1` [Cytarabine], the “inhibition” value is 2.04%. The same measure for `O=c1[nH]c(=O)c2ccccc2o1` [Carsalam]: -2.76%; for `Cc1[nH]c2ccccc2c1CCNCc1ccc(/C=C/C(=O)NO)cc1` [Panobinostat (LBH589)]: 95.9%; for `COc1ccnc(C[S+]([O-])c2nc3cc(OC(F)F)ccc3[nH]2)c1OC` (stereo not drawn) [Pantoprazole sodium]: 10.3%. The same measure for `COc1ccnc(C[S+]([O-])c2nc3cc(OC(F)F)ccc3[nH]2)c1OC` (stereo not drawn) [Pantoprazole]: 24%; for `CCOc1ccccc1OC(c1ccccc1)C1CNCCO1` (stereo not drawn) [Reboxetine mesylate]: 15.5%. Next, `O=c1[nH]cnc2c1ncn2[C@@H]1O[C@H](CO)[C@@H](O)[C@H]1O` [Inosine]: -30.6%; `COc1cc([C@@H]2c3cc4c(cc3[C@@H](O[C@@H]3O[C@@H]5CO[C@@H](c6cccs6)O[C@H]5[C@H](O)[C@H]3O)[C@H]3COC(=O)[C@H]23)OCO4)cc(OC)c1O` [Teniposide]: 44%; `CCOc1ccc(C[C@H]2NC(=O)CCSSC[C@@H](C(=O)N3CCC[C@H]3C(=O)N[C@@H](CCCN)C(=O)NCC(N)=O)NC(=O)[C@H](CC(N)=O)NC(=O)[C@H]([C@@H](C)O)NC(=O)[C@H]([C@@H](C)CC)NC2=O)cc1` [Atosiban Acetate]: 1.58%. With `O=c1ccc2ccccc2o1` [Coumarin], the “inhibition” value was -11.3%. Next, `CN(C)CCCN1c2ccccc2Sc2ccc(Cl)cc21` [Chlorpromazine HCl]: 46%. As to `C[C@@H](O)[C@H]1C(=O)N2C(C(=O)[O-])=C(SC3Cn4cnc[n+]4C3)[C@H](C)[C@H]12` (stereo partly drawn) [Biapenem], the “inhibition” value turned out to be 26.8%. Next, `Cc1nc(-c2ccc(OCC(C)C)c(C#N)c2)sc1C(=O)O` [Febuxostat]: 50.8%; `CC(=O)[C@H]1CC[C@H]2[C@@H]3CC=C4C[C@@H](O)CC[C@]4(C)[C@H]3CC[C@]12C` [Pregnenolone]: 17.4%. Next, `COc1ccc(CC2c3cc(OC)c(OC)cc3CC[N+]2(C)CCC(=O)OCCCCCOC(=O)CC[N+]2(C)CCc3cc(OC)c(OC)cc3C2Cc2ccc(OC)c(OC)c2)cc1OC` (stereo not drawn) [Atracurium Besylate]: 38.7%; `CN(C)c1ccc(C(=C2C=CC(=[N+](C)C)C=C2)c2ccc(N(C)C)cc2)cc1` [Crystal Violet]: over 100%.

For `CC(C(=O)O)c1ccc2c(c1)CC(=O)c1ccccc1S2` (stereo not drawn) [Zaltoprofen], the “inhibition” value amounted to 12.4%. In the case of `CCN(CCO)CCCC(C)Nc1ccnc2cc(Cl)ccc12` (stereo not drawn) [Hydroxychloroquine Sulfate], the “inhibition” value worked out at 54.8%. Next, `Cc1nc(Nc2ncc(C(=O)Nc3c(C)cccc3Cl)s2)cc(N2CCN(CCO)CC2)n1` [Dasatinib]: over 100%.

`Cc1nc(Nc2ncc(C(=O)Nc3c(C)cccc3Cl)s2)cc(N2CCN(CCO)CC2)n1` [Dasatinib Monohydrate]: the “inhibition” value was over 100%. The same measure for `Cc1nc(Nc2ncc(C(=O)Nc3c(C)cccc3Cl)s2)cc(N2CCN(CCO)CC2)n1` [Dasatinib hydrochloride]: 93.7%; for `CCCCN1CCCCC1C(=O)Nc1c(C)cccc1C` (stereo not drawn) [Bupivacaine HCl]: 27.1%; for `CO/N=C1\C[C@]2(C[C@@H]3C[C@@H](C/C=C(\C)C[C@@H](C)/C=C/C=C4\CO[C@@H]5[C@H](O)C(C)=C[C@@H](C(=O)O3)[C@]45O)O2)O[C@H](/C(C)=C/C(C)C)[C@H]1C` [Moxidectin]: 57.5%. The same measure for `C=C1/C(=C\C=C2/CCC[C@]3(C)[C@@H]([C@H](C)/C=C/[C@H](C)C(C)C)CC[C@@H]23)C[C@@H](O)C[C@@H]1O` [Doxercalciferol]: -47.3%; for `CC(C)(C)c1ccc(C(O)CCCN2CCC(C(O)(c3ccccc3)c3ccccc3)CC2)cc1` (stereo not drawn) [Terfenadine]: 90.5%.

With `COc1cc(NC(C)CCCN)c2ncccc2c1` (stereo not drawn) [Primaquine Diphosphate], the “inhibition” value was 13.5%. Next, `CC(=O)CC/C=C(\C)CC/C=C(\C)CC/C=C(\C)CCC=C(C)C` [Teprenone]: 19.1%; `CC/C(=C(/CC)c1ccc(O)cc1)c1ccc(O)cc1` [Diethylstilbestrol]: -15%. The same measure for `CC1=C(/C=C/C(C)=C/C=C/C(C)=C\C(=O)O)C(C)(C)CCC1` [Isotretinoin]: -39.5%; for `CSc1ccc2c(c1)N(CCC1CCCCN1C)c1ccccc1S2` (stereo not drawn) [Thioridazine hydrochloride]: 80.1%; for `Cc1cc(-c2ccccc2)nnc1NCCN1CCOCC1` [Minaprine dihydrochloride]: over 100%.

On to `NC(N)=Nc1nc(CSCC/C(N)=N/S(N)(=O)=O)cs1` [Famotidine], for which the “inhibition” value was found to be 17.1%. Next, `CCCCCCCCCCCCCCCCOc1nc2ccc(C)cc2c(=O)o1` [Cetilistat]: 10.4%; `CN(C)[C@@H]1C(O)=C(C(N)=O)C(=O)[C@@]2(O)C(O)=C3C(=O)c4c(O)cccc4[C@@](C)(O)[C@H]3[C@H](O)[C@@H]12` [Oxytetracycline Dihydrate]: -8.86%. The same measure for `CN(C)[C@@H]1C(O)=C(C(N)=O)C(=O)[C@@]2(O)C(O)=C3C(=O)c4c(O)cccc4[C@@](C)(O)[C@H]3[C@H](O)[C@@H]12` [Oxytetracycline (Terramycin)]: 13.4%.

Regarding `COc1cc(OC)c(/C=C/S(=O)(=O)Cc2ccc(OC)c(NCC(=O)O)c2)c(OC)c1`, the “inhibition” value amounted to 95.7%. The same measure for `CCCCCCCCCCCCCCCCOP(=O)([O-])OCC[N+](C)(C)C` [Miltefosine]: 2.06%; for `CN(C)c1ccc(O)c2c1C[C@H]1C[C@H]3[C@H](N(C)C)C(O)=C(C(N)=O)C(=O)[C@@]3(O)C(O)=C1C2=O` [Minocycline HCl]: 37.5%. Take `CSCCNc1nc(SCCC(F)(F)F)nc2c1ncn2[C@@H]1O[C@H](COP(=O)(O)OP(=O)(O)C(Cl)(Cl)P(=O)(O)O)[C@@H](O)[C@H]1O` [Cangrelor Tetrasodium]: the “inhibition” value turned out to be 44.7%. The same measure for `C[N+](C)(C)CCOC(=O)CCC(=O)OCC[N+](C)(C)C` [Succinylcholine Chloride Dihydrate]: 6.34%; for `O=C(O)CCCC[C@@H]1CCSS1` (racemic) [Thioctic acid]: 12.1%; for `Nc1nc(NC2CC2)c2ncn([C@H]3C=C[C@@H](CO)C3)c2n1` [Abacavir sulfate]: -2.47%. Next, `Nc1nc(NC2CC2)c2ncn([C@H]3C=C[C@@H](CO)C3)c2n1` [Abacavir]: -14.1%; `CCOc1ccc2nc3cc(N)ccc3c(N)c2c1` [Ethacridine lactate monohydrate]: over 100%.

On to `CN(Cc1cnc2nc(N)nc(N)c2n1)c1ccc(C(=O)N[C@@H](CCC(=O)O)C(=O)O)cc1` [Methotrexate disodium], for which the “inhibition” value amounted to 7.94%.

As for `CN(Cc1cnc2nc(N)nc(N)c2n1)c1ccc(C(=O)N[C@@H](CCC(=O)O)C(=O)O)cc1` [Methotrexate], the “inhibition” value is -22.5%. Next, `CC(C)(C)CC(C)(C)c1ccc(O)c(Cc2ccc(Cl)cc2Cl)c1` [Clofoctol]: 47.7%; `CN1CCN(c2c(F)cc3c(=O)c(C(=O)O)cn4c3c2OCN4C)CC1` [Marbofloxacin]: 22.6%; `CCOC(=O)c1ccc(N)cc1` [Benzocaine]: 4.88%. In the case of `CCOC(=O)c1ccc(N)cc1` [Benzocaine hydrochloride], the “inhibition” value came to 4.45%. Next, `CCN(CC)CCOC(=O)C(c1ccccc1)c1ccccc1` [Adiphenine HCl]: 19.2%. Next, `OC(CCCN1CCCCC1)(c1ccccc1)c1ccccc1` [Diphenidol HCl]: -1.56%; `C[C@]12CC[C@@H]3c4ccc(OS(=O)(=O)O)cc4CC[C@H]3[C@@H]1CCC2=O` [Estropipate]: 40%. Take `CCCCCCCCCCCC[N+](C)(C)CCOc1ccccc1` [Domiphen Bromide]: the “inhibition” value was over 100%. The same measure for `CC(O)c1ccc(S(=O)(=O)NC(=O)NC2CCCCC2)cc1` (stereo not drawn) [Hydroxyhexamide]: 11%.

(Values after the supplement of paper PMC9744312.)
